These are yes or no findings as the source states them, for the method shown. In cells and extracts the contact can be indirect. Some entries that bind do so weakly or less than the wild type. For some of these results: Sequences can lack the tags named with a protein.

By UniProt entry, the sequences of proteins in these tests, tags left out.
UniProt Q8K4Q0: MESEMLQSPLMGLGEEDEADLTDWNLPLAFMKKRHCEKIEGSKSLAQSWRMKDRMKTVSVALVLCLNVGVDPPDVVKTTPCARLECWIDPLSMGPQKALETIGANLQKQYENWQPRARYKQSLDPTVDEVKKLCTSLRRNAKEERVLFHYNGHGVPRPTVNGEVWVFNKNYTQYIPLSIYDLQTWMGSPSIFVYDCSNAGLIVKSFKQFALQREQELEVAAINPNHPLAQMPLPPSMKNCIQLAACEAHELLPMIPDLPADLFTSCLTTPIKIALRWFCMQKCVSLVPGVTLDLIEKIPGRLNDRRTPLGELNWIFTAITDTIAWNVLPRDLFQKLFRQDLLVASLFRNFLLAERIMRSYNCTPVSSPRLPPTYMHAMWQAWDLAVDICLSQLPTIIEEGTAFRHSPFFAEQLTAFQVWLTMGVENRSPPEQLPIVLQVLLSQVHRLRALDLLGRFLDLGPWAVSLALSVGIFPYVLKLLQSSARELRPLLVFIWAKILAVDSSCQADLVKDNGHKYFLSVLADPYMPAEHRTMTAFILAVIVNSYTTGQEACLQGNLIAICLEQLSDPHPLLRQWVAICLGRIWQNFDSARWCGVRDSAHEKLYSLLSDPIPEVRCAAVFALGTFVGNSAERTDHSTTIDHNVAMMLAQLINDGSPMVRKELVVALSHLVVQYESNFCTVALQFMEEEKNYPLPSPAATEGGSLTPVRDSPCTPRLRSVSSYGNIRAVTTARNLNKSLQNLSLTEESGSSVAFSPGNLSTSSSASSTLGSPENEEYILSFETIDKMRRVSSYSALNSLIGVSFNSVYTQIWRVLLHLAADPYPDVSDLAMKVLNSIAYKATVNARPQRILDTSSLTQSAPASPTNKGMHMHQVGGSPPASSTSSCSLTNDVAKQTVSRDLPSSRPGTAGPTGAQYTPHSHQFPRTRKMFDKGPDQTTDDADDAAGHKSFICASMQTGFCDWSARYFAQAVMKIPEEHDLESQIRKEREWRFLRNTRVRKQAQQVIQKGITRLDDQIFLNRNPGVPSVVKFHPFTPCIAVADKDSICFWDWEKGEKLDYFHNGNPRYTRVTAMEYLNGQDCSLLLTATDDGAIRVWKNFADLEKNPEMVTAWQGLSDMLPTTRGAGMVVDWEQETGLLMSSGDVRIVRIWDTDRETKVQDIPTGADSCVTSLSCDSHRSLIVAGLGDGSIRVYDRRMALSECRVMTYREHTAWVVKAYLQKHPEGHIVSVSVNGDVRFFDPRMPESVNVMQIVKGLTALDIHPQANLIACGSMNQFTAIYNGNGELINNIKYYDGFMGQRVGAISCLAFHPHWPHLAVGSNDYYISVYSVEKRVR

For three molecules, binding results are on record in publication PMC11264944.

Test [1] has as its target T1, FLAG-tagged AKAP8L (A-kinase anchor protein 8-like) (UniProt Q9R0L7).
T1 sequence: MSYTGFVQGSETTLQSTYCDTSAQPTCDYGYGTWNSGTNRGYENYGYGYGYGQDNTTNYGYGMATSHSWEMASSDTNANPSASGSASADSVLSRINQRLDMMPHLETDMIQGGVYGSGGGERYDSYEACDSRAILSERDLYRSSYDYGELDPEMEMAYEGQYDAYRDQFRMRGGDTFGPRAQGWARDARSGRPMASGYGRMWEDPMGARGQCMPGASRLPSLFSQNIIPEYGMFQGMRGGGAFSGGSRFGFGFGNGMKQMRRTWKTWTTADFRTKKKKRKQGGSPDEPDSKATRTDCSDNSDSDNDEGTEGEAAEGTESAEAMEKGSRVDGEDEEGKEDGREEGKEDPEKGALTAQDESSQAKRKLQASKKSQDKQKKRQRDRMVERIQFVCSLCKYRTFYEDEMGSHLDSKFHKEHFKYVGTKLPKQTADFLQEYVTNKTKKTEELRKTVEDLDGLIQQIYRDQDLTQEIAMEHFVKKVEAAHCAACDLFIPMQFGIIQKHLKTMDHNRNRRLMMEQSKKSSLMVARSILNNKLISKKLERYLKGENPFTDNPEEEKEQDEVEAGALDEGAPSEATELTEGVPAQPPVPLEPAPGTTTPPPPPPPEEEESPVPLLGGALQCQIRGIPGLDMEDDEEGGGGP
Description: co-IP; HA-tagged Raptor and FLAG-tagged AKAP8L overexpressed in BV2 cells, normal glucose; lysis in 0.3% CHAPS, on ice or at 4 °C; immunoprecipitation of HA-Raptor and, in reverse, of FLAG-AKAP8L; Co-IP kit (Absin).

The next test concerns the target HA-tagged Raptor (UniProt Q8K4Q0). The test is described as above.
The target in test [2] is endogenous Raptor (mouse (endogenous in BV2 cells and primary microglia)) (UniProt Q8K4Q0). Description: proximity ligation; Duolink PLA kit; fixed (4% PFA), permeabilised cells; primary antibodies against Raptor and AKAP8L overnight at 4 °C; BV2 cells and primary microglia, control and high glucose (HG).
For test [3] the target is unchanged. Description: co-IP; endogenous AKAP8L and Raptor in microglial cells, control and high glucose (HG) stimulation; which of the two was precipitated is not stated.

As for “HA-tagged Raptor (from UniProt Q8K4Q0 1-1335)”, the binding result in test [1] is given as “binds”.

B1: FLAG-tagged AKAP8L (A-kinase anchor protein 8-like) (protein, UniProt Q9R0L7 1-642)
chain: MSYTGFVQGSETTLQSTYCDTSAQPTCDYGYGTWNSGTNRGYENYGYGYGYGQDNTTNYGYGMATSHSWEMASSDTNANPSASGSASADSVLSRINQRLDMMPHLETDMIQGGVYGSGGGERYDSYEACDSRAILSERDLYRSSYDYGELDPEMEMAYEGQYDAYRDQFRMRGGDTFGPRAQGWARDARSGRPMASGYGRMWEDPMGARGQCMPGASRLPSLFSQNIIPEYGMFQGMRGGGAFSGGSRFGFGFGNGMKQMRRTWKTWTTADFRTKKKKRKQGGSPDEPDSKATRTDCSDNSDSDNDEGTEGEAAEGTESAEAMEKGSRVDGEDEEGKEDGREEGKEDPEKGALTAQDESSQAKRKLQASKKSQDKQKKRQRDRMVERIQFVCSLCKYRTFYEDEMGSHLDSKFHKEHFKYVGTKLPKQTADFLQEYVTNKTKKTEELRKTVEDLDGLIQQIYRDQDLTQEIAMEHFVKKVEAAHCAACDLFIPMQFGIIQKHLKTMDHNRNRRLMMEQSKKSSLMVARSILNNKLISKKLERYLKGENPFTDNPEEEKEQDEVEAGALDEGAPSEATELTEGVPAQPPVPLEPAPGTTTPPPPPPPEEEESPVPLLGGALQCQIRGIPGLDMEDDEEGGGGP
B1: in the test with HA-tagged Raptor, the binding result is given as “binds”.

B2: endogenous AKAP8L (A-kinase anchor protein 8-like) (protein, UniProt Q9R0L7 1-642)
chain: MSYTGFVQGSETTLQSTYCDTSAQPTCDYGYGTWNSGTNRGYENYGYGYGYGQDNTTNYGYGMATSHSWEMASSDTNANPSASGSASADSVLSRINQRLDMMPHLETDMIQGGVYGSGGGERYDSYEACDSRAILSERDLYRSSYDYGELDPEMEMAYEGQYDAYRDQFRMRGGDTFGPRAQGWARDARSGRPMASGYGRMWEDPMGARGQCMPGASRLPSLFSQNIIPEYGMFQGMRGGGAFSGGSRFGFGFGNGMKQMRRTWKTWTTADFRTKKKKRKQGGSPDEPDSKATRTDCSDNSDSDNDEGTEGEAAEGTESAEAMEKGSRVDGEDEEGKEDGREEGKEDPEKGALTAQDESSQAKRKLQASKKSQDKQKKRQRDRMVERIQFVCSLCKYRTFYEDEMGSHLDSKFHKEHFKYVGTKLPKQTADFLQEYVTNKTKKTEELRKTVEDLDGLIQQIYRDQDLTQEIAMEHFVKKVEAAHCAACDLFIPMQFGIIQKHLKTMDHNRNRRLMMEQSKKSSLMVARSILNNKLISKKLERYLKGENPFTDNPEEEKEQDEVEAGALDEGAPSEATELTEGVPAQPPVPLEPAPGTTTPPPPPPPEEEESPVPLLGGALQCQIRGIPGLDMEDDEEGGGGP
Take B2: the binding result in test [2] and in test [3] was “binds” in each case.
